Assay results published in PubChem BioAssay AID623959 (National Center for Advancing Translational Sciences (NCATS), 2012).
Fewer than 10 of roughly 1,400 compounds were called active. Roughly 8% stayed inconclusive and do not appear here. The call rests on the fitted dose curve; in most records, active means well fitted curve in the direction sought with a large enough effect; inconclusive means small, poorly fitted or top-dose-only effect, or another doubt; inactive means no such curve, though single readings can be large or run the other way. Some of the results follow.

Chains of the proteins cited; added tags and fusions are not shown.
UniProt Q8NER1, whole entry, looked up: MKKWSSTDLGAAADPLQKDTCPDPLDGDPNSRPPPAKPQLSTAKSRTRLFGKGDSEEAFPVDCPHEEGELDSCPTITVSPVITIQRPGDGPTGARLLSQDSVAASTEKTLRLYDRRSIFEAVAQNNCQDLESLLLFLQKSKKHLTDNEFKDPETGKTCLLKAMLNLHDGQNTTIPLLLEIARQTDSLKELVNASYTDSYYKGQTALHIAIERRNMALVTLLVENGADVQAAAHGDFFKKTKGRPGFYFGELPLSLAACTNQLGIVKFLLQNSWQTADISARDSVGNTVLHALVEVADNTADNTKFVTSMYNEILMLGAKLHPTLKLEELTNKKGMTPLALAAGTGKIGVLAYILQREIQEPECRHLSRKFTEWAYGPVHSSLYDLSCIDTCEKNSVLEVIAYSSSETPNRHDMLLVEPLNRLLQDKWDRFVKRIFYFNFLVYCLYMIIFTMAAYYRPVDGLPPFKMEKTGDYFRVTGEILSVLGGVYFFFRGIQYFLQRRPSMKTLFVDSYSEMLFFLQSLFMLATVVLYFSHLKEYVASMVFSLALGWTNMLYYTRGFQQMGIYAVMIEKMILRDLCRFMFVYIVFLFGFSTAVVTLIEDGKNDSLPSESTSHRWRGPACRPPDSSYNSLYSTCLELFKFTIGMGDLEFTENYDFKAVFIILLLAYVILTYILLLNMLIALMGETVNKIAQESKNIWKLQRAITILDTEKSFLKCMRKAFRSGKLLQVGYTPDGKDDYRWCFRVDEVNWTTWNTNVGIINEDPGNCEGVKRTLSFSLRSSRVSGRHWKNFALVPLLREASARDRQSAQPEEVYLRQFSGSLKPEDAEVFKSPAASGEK

The compounds below were run against Transient receptor potential cation channel subfamily V member 1 (Homo sapiens) (UniProt Q8NER1) (assay: qHTS Assay for Compounds that Act as Potentiators of the Vanilloid Receptor 1: Hit Validation). Conditions: TRPV1-expressing cells, Fluo-8 calcium influx, capsaicin EC20; series mostly up to 42.1 µM; activity change, positive = potentiation: at the top concentration.
Outline: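 TRPV1 cells (2000/well, overnight 35.5 °C) loaded with Fluo-8 calcium dye 40–90 min at room temperature. FDSS fluorescence (ex 480/em 520 nm) read 3 min after compound, then 2 min after capsaicin at EC20.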
Further: % of control where 0% means no effect.

Row | SMILES | activity change, positive = potentiation
1 | COc1cc(CN(C)CC(=O)c2[nH]c(C)c(C(C)=O)c2C)ccc1OC(F)F | inactive: 11%
2 | Nn1c(Cc2ccccc2F)nnc1SCn1nnc2ccccc2c1=O | inactive: -3.91%
3 | O=C(CSc1ccc2nnc(-c3ccccc3)n2n1)NCC1CCCO1 (stereo not given) | inactive: -10.8%
4 | COc1ccc(CNCc2c(O)c(Cl)cc3c(C)c(C)c(=O)oc23)c(OC)c1 | inactive: -8.72%
5 | O=C(O)CCC(=O)N1N=C(c2ccco2)CC1c1ccco1 (stereo not given) | inactive: -5.94%
6 | Nc1ccc(Oc2ccc(Cl)cc2)cc1 | inactive: -6.86%
7 | Cc1ccc(NC(=O)c2ccc(S(=O)(=O)N3CCCC3)cc2)nc1 | inactive: -32.8%
8 | CCC(C)c1ccc(NC(=S)NCc2ccccc2OC)cc1 (stereo not given) | inactive: -38.1%
9 | COc1cccc(NC(=O)n2nc(N)cc2-c2ccc(Cl)cc2)c1 | inactive: -9.25%
10 | CC(=O)Nc1c(O)nc(SCC(=O)N2CCN(c3ccc(F)cc3)CC2)[nH]c1=O | inactive: -1.02%
11 | O=C(Nc1ccccc1)C1C(c2ccccc2)C1(Cl)Cl (stereo not given) | inactive: -34.5%
12 | Cc1cc2cc(CNC(=S)NC3CCCCC3)ccc2[nH]1 | inactive: 8.09%
13 | Cc1cc(C)c(OCC(=O)Nc2nnc(-c3ccco3)o2)c(C)c1 | inactive: -7.22%
14 | Cc1ccc(C)c(N=Nc2ccc(O)c3ncccc23)c1 | inactive: -9.28%
15 | Cc1c(OCC(=O)N2CCC(C(N)=O)CC2)ccc2c1oc(=O)c1ccccc12 | inactive: -36.7%
16 | COC(=O)c1nnn(CC(=O)Nc2ccc(C)c(F)c2)c1C(=O)OC | inactive: 8.85%
17 | CCCCOc1ccc(C(=O)Nc2cccc(-n3cnnn3)c2)cc1OC | inactive: -34.7%
18 | CCc1c(C)sc(NC(=O)c2cc(C)no2)c1C#N | inactive: -3.05%
19 | CCN(CCCNC(=O)c1cn(CC)c2ccc(S(=O)(=O)N(C)C)cc2c1=O)c1cccc(C)c1 | inactive: -37.6%
20 | CCOc1cc(C(=O)OCC(=O)Nc2ccc(SC(F)F)cc2)cc(OCC)c1OCC | inactive: -24.8%
21 | O=C(Nc1ccc(-n2cccc2)cc1)C1CC1 | inactive: -2.93%
22 | Cc1cc2oc(C(=O)Nc3cccnc3)c(C)c2cc1C | inactive: -38%
23 | COC(=O)c1cccc(NC(=O)c2ccc3c(c2)C(=O)N(C(C)(C)C)C3=O)c1 | inactive: -28%
24 | COC(=O)c1ccc(-c2nc(CN3CCC(C(=O)N4CCOCC4)CC3)c(C)o2)cc1 | inactive: 1.75%
25 | O=C(O)c1ccc(NCc2cccnc2)c([N+](=O)[O-])c1 | inactive: -4.5%
26 | O=C(Cc1ccccc1)Nc1nc(-c2cccs2)cs1 | inactive: -36.1%
27 | COc1cccc(CNCc2cc(OC)cc(OC)c2)c1 | inactive: -4.28%
28 | CC(C)NC(=O)COC(=O)c1ccc(O)cc1 | inactive: -9.92%

Row | SMILES | activity change, positive = potentiation
29 | COc1cc(C2c3sc(=O)[nH]c3SC3C4CCC(C4)C23)ccc1O (stereo not given) | inactive: -3.36%
30 | Brc1ccc2nc(-c3c[nH]c4ccccc34)cn2c1 | inactive: -4.48%
31 | O=C(N/N=C/c1ccccc1)c1ccc(NC(=O)c2ccc(F)cc2)cc1 | inactive: -7.18%
32 | CCCCc1ccc(NC(=O)Nc2cccnc2)cc1 | inactive: -36.5%
33 | CC(C)(C)c1ccc(OCc2ccc(C(=O)NN)o2)cc1 | inactive: -30.2%
34 | Cc1ccccc1NC(=O)CSc1nnc(Cc2ccccc2)c(=O)n1N | inactive: -1.47%
35 | CCOc1ccc(NC(=O)c2cccc3ccccc23)cc1 | inactive: -11.4%
36 | CC1=C(C(=O)OCC2CCCO2)C(c2ccc(C)o2)C2=C(CC(c3ccc(F)cc3)CC2=O)N1 (stereo not given) | inactive: 3.36%
37 | O=C(Cn1c(NCCCO)nc2ccccc21)c1ccc(Cl)cc1 | inactive: -7.03%
38 | COc1cc(NC(=S)NCc2ccc(S(N)(=O)=O)cc2)cc(OC)c1 | inactive: -24.7%
39 | COc1cccc(OCC(=O)Nc2cc(NC(=O)COc3cccc(OC)c3)cc(C(=O)O)c2)c1 | inactive: 4.12%
40 | CC1(c2ccc(OC(F)F)cc2)NC(=O)N(CC(=O)Nc2ccc3[nH]c(=O)[nH]c3c2)C1=O (stereo not given) | inactive: -0.778%
41 | COc1ccc(S(=O)(=O)N2CCC(NC(=O)c3cccc(F)c3)CC2)cc1 | inactive: 4.05%
42 | COc1ccc(/C=C2/SC(=S)N(NS(=O)(=O)c3ccccc3)C2=O)cc1 | inactive: -1.57%
43 | Cc1cc(C)c(C(=O)N2CCCC(Nc3ccc(C)c(C)c3)C2)o1 (stereo not given) | inactive: -38.2%
44 | Cc1nn(C)c(C(=O)Nc2ccc(S(=O)(=O)NC34CC5CC(CC(C5)C3)C4)cc2)c1Br | inactive: -0.96%
45 | CCN1N=C(c2ccccc2)Cn2c1nc1ccccc12 | inactive: -40%
46 | O=C(Cc1cccs1)Nc1cccc(-c2nnc(-c3ccco3)o2)c1 | inactive: -4.78%
47 | O=C1NNC(c2ccccc2)=N/C1=C\c1ccccc1Cl | inactive: -5%
48 | O=C(Nc1ccc2c(c1)CCC2)c1cccc(F)c1 | inactive: -37.6%
49 | CCN(CC)c1ccc(/C=N/NS(=O)(=O)c2ccc(CNC(C)=O)cc2)cc1 | inactive: -7.02%
50 | Cc1cc(C(=O)N2CCCC(C(=O)c3ccc(Oc4ccccc4)cc3)C2)n[nH]1 (stereo not given) | inactive: -8.31%
51 | c1ccc(CSC2=NNC(c3ccccn3)S2)cc1 (stereo not given) | inactive: -9.69%
52 | COc1ccc(C(=O)Nc2ccc3ncccc3c2)cc1 | inactive: -33.5%
53 | Cc1c(/C=C(\C#N)C(=O)NCc2ccccc2)cc(C#N)n1C | inactive: 2.38%
54 | O=C(C[C@H]1C(=O)N(C2CCCCC2)C[C@@H]1Cc1ccccc1)Nc1ccccc1 | inactive: -36.6%
55 | COC(=O)c1sccc1NC(=O)c1c(Cl)cccc1Cl | inactive: -16.2%

An excerpt from above in order of length of the SMILES, rising.
Row | SMILES | activity change, positive = potentiation
37 | O=C(Cn1c(NCCCO)nc2ccccc21)c1ccc(Cl)cc1 | inactive: -7.03%
43 | Cc1cc(C)c(C(=O)N2CCCC(Nc3ccc(C)c(C)c3)C2)o1 (stereo not given) | inactive: -38.2%
54 | O=C(C[C@H]1C(=O)N(C2CCCCC2)C[C@@H]1Cc1ccccc1)Nc1ccccc1 | inactive: -36.6%
